In the supplement of paper PMC10331698:
± gives the standard deviation of the averaged measurements. Small differences around the control level are noise.

Key:
Assay in all cases: level (log10 ratio to DMSO vehicle control); higher = higher biomarker level / cell amount than vehicle control
[1] = compound: C=CC(=O)OCC(F)(F)C(F)(F)C(F)(F)C(F)(F)C(F)(F)C(F)(F)C(F)(F)C(F)F [1H,1H,9H-Perfluorononyl acrylate]; settings: 2200 nM; in DMSO
Description: (§1)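 BioMAP Diversity Plus panel of 12 human primary cell co-culture systems (3C, 4H, LPS, SAg, BT, BF4T, BE3C, CASM3C, HDF3CGF, KF3CT, MyoF, Mphg). Compounds were added 1 h before stimulation and left for 24 h (MyoF 48 h; BT 72 h for soluble read-outs or 6 d for IgG). Biomarkers were read by ELISA, cytotoxicity by SRB, PBMC viability and proliferation by Alamar Blue. Each well value was divided by the mean of 8 DMSO control wells on the same plate and log10 transformed; duplicate blinded samples were tested at 4 concentrations.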

[2] = compound: CCOC(=O)CC(=O)C(F)(F)C(F)(F)F [Ethyl pentafluoropropionyl acetate]; settings: 2200 nM; in DMSO
Description: as §1

[3] = compound: FC(F)(F)C(F)(F)C(F)(F)C(F)(F)C(F)(F)C(F)(F)C(F)(F)C(F)(F)CCS [2-(Perfluorooctyl)ethanthiol]; settings: in DMSO
Description: as §1

Perfluorooctanamidine = compound: N=C(N)C(F)(F)C(F)(F)C(F)(F)C(F)(F)C(F)(F)C(F)(F)C(F)(F)F [Perfluorooctanamidine]; settings: in DMSO
Description: as §1

[4] = compound: O=C(CC(=O)C(F)(F)C(F)(F)C(F)(F)F)c1cccs1 [(Perfluorobutyryl)-2-thenoylmethane]; settings: 2200 nM; in DMSO
Description: as §1

Perfluorodecanoic acid = compound: O=C(O)C(F)(F)C(F)(F)C(F)(F)C(F)(F)C(F)(F)C(F)(F)C(F)(F)C(F)(F)C(F)(F)F [Perfluorodecanoic acid]; settings: in DMSO
Description: as §1

Perfluorononanoic acid = compound: O=C(O)C(F)(F)C(F)(F)C(F)(F)C(F)(F)C(F)(F)C(F)(F)C(F)(F)C(F)(F)F [Perfluorononanoic acid]; settings: 2200 nM; in DMSO
Description: as §1

[5] = compound: O=C(O)C(F)(F)C(F)(F)C(F)(F)C(F)(F)C(F)(F)C(F)(F)C(F)(F)F [Ammonium perfluorooctanoate]; settings: 2200 nM; in DMSO
Description: as §1

Perfluorooctanoic acid = compound: O=C(O)C(F)(F)C(F)(F)C(F)(F)C(F)(F)C(F)(F)C(F)(F)C(F)(F)F [Perfluorooctanoic acid]; settings: 2200 nM; in DMSO
Description: as §1

[6] = compound: O=C(O)C(F)(F)OC(F)(F)C(F)(F)OC(F)(F)C(F)(F)OC(F)(F)C(F)(F)C(F)(F)C(F)(F)F [Perfluoro-3,6,9-trioxatridecanoic acid]; settings: 2200 nM; in DMSO
Description: as §1

[7] = compound: O=C(O)C(F)(F)OC(F)(F)C(F)(F)OC(F)(F)F [Perfluoro-3,6-dioxaheptanoic acid]; settings: 2200 nM; in DMSO
Description: as §1

[8] = compound: O=C(O)CCC(F)(C(F)(F)F)C(F)(F)F [4,4-bis(Trifluoromethyl)-4-fluoropropanoic acid]; settings: 2200 nM; in DMSO
Description: as §1

[9] = compound: OCC(F)(F)C(F)(F)C(F)(F)C(F)(F)C(F)(F)C(F)(F)C(F)(F)C(F)(F)CO [1H,1H,10H,10H-Perfluorodecane-1,10-diol]; settings: 2200 nM; in DMSO
Description: as §1

[10] = compound: OCC(F)(F)OC(F)(F)C(F)(F)OC(F)(F)C(F)(F)OC(F)(F)CO [1H,1H,11H,11H-Perfluorotetraethylene glycol]; settings: 2200 nM; in DMSO
Description: as §1

Test System	level (log10) [1]	level (log10) [2]	level (log10) ([3]; 740 nM)	level (log10) ([3]; 2200 nM)	level (log10) (Perfluorooctanamidine; 2200 nM)	level (log10) (Perfluorooctanamidine; 6700 nM)	level (log10) (Perfluorooctanamidine; 20000 nM)	level (log10) (Perfluorooctanamidine; 60000 nM)	level (log10) [4]	level (log10) (Perfluorodecanoic acid; 2200 nM)	level (log10) (Perfluorodecanoic acid; 6700 nM)	level (log10) (Perfluorodecanoic acid; 20000 nM)	level (log10) (Perfluorononanoic acid)	level (log10) [5]	level (log10) (Perfluorooctanoic acid)	level (log10) [6]	level (log10) [7]	level (log10) [8]	level (log10) [9]	level (log10) [10]
lMphg:CXCL8/IL-8	0.0075 ± 0.013	0.028 ± 0.058	0.0425 ± 0.064	0.024 ± 0.0014	-0.0115 ± 0.011	0.011	0.0425 ± 0.019	0.175	-0.006 ± 0.041	0.021 ± 0.0085	0.0415 ± 0.049	0.04 ± 0.023	0.052 ± 0.014	0.011 ± 0.033	0.0375 ± 0.019	0.0525 ± 0.0021	0.0315 ± 0.011	0.045 ± 0.058	-0.004 ± 0.027	-0.0005 ± 0.03
MyoF:Collagen I	0.005 ± 0.033	-0.006 ± 0.028	0.003 ± 0.0014	-0.005	-0.005 ± 0.024	-0.0005 ± 0.013	0.007 ± 0.0085	0.047	-0.026 ± 0.031	0.0095 ± 0.00071	-0.0065 ± 0.059	-0.417 ± 0.071	-0.0425 ± 0.015	-0.0255 ± 0.0078	0.0035 ± 0.005	-0.011 ± 0.013	-0.0165 ± 0.023	-0.0055 ± 0.016	-0.0005 ± 0.026	0.0065 ± 0.018
HDF3CGF:PAI-I	0.0095 ± 0.066	-0.0005 ± 0.029	-0.0385 ± 0.054	-0.066 ± 0.05	-0.035 ± 0.011	-0.0225 ± 0.013	0.02 ± 0.014	-0.233	0.0545 ± 0.052	0.112 ± 0.073	0.15 ± 0.051	-0.107 ± 0.1	0.0195 ± 0.081	0.057 ± 0.054	0.0225 ± 0.019	0.0015 ± 0.057	-0.043 ± 0.042	0.026 ± 0.041	0.0005 ± 0.03	0.0085 ± 0.033
LPS:sTNF-alpha	0.082 ± 0.062	0.006 ± 0.017	0.0635 ± 0.029	0.0515 ± 0.013	0.0425 ± 0.00071	-0.0145 ± 0.071	-0.095 ± 0.17	-0.08	-0.023 ± 0.027	-0.0255 ± 0.029	-0.0245 ± 0.011	-0.02 ± 0.017	0.013 ± 0.048	-0.008 ± 0.0085	0.0205 ± 0.015	-0.0095 ± 0.049	-0.0155 ± 0.049	-0.0185 ± 0.049	-0.0725 ± 0.13	0.0055 ± 0.0035
CASM3C:LDLR	0.0205 ± 0.005	0.006 ± 0.018	-0.001 ± 0.068	-0.035 ± 0.062	0.0455 ± 0.047	0.012 ± 0.013	0.036 ± 0.0085	0.108	-0.0115 ± 0.023	0.0075 ± 0.025	-0.0045 ± 0.0078	0.0105 ± 0.03	-0.111 ± 0.094	0.004 ± 0.0085	-0.0145 ± 0.016	-0.021 ± 0.0099	-0.046 ± 0.044	-0.003 ± 0.0014	0.031 ± 0.034	0.002 ± 0.025
KF3CT:CCL2/MCP-1	0.055 ± 0.023	-0.0095 ± 0.076	0.003 ± 0.011	-0.026 ± 0.011	-0.013 ± 0.021	-0.0075 ± 0.0064	0.029 ± 0.0099	0.092	0.0275 ± 0.043	-0.02 ± 0.038	-0.127 ± 0.023	-0.321 ± 0.032	-0.086 ± 0.058	-0.002 ± 0.011	0.0175 ± 0.04	-0.037 ± 0.02	-0.045 ± 0.0099	0.012 ± 0.021	0.025 ± 0.069	0.0135 ± 0.094
BT:sTNF-alpha	0.0185 ± 0.2	-0.153 ± 0.16	-0.0095 ± 0.079	0.0255 ± 0.18	0.126 ± 0.0014	0.102 ± 0.099	0.0345 ± 0.084	0.01	0.142 ± 0.018	0.0195 ± 0.069	0.0625 ± 0.047	0.018 ± 0.0099	-0.0495 ± 0.019	-0.047 ± 0.12	0.199 ± 0.016	0.0375 ± 0.036	0.0375 ± 0.033	0.116 ± 0.012	0.027 ± 0.21	-0.113 ± 0.028
CASM3C:CXCL9/MIG	0.02 ± 0.027	0 ± 0.028	0.001 ± 0.081	-0.0075 ± 0.077	0.041 ± 0.034	-0.005 ± 0.013	-0.017 ± 0.024	0.069	0.018 ± 0.0099	0.0075 ± 0.019	-0.012 ± 0.0028	-0.0055 ± 0.0064	0.029 ± 0.0071	0.02 ± 0.0071	0.019 ± 0.038	0.022 ± 0.041	0.051 ± 0.033	0.008 ± 0.048	0.007 ± 0.0071	0.028 ± 0.051
BE3C:MMP-1	-0.003 ± 0.045	0.004 ± 0.052	0.033 ± 0.048	0.01 ± 0.03	0.0585 ± 0.0064	0.0525 ± 0.03	0.057 ± 0.044	0.262	0.0275 ± 0.005	0.021 ± 0.041	0.211 ± 0.041	-0.4875 ± 0.0035	-0.003 ± 0.034	0.013 ± 0.0085	0.0325 ± 0.07	0.099 ± 0.024	-0.03 ± 0.059	0.0385 ± 0.05	0.033 ± 0.0028	0.014 ± 0.0099
BE3C:CD87/uPAR	0.003 ± 0.038	0.0075 ± 0.054	0.0025 ± 0.015	0.005 ± 0.017	0.0305 ± 0.015	-0.001 ± 0.014	-0.0035 ± 0.057	0.083	0.003 ± 0.0085	0.0315 ± 0.012	0.05 ± 0.016	-0.554 ± 0.011	0.0175 ± 0.033	0.0105 ± 0.019	-0.0115 ± 0.093	0.0785 ± 0.042	0.0105 ± 0.023	-0.001 ± 0.025	0.019 ± 0.024	0.011 ± 0.027
MyoF:Decorin	-0.0045 ± 0.04	-0.003 ± 0.031	-0.0175 ± 0.026	-0.01 ± 0.045	0.015 ± 0.044	0.004 ± 0.0099	0.0055 ± 0.013	0.07	0.0295 ± 0.04	0.017 ± 0.024	0.0055 ± 0.0064	-0.071 ± 0.018	0.0095 ± 0.013	0.009 ± 0.0042	-0.0045 ± 0.016	0.031 ± 0.064	0.009 ± 0.013	-0.022 ± 0.017	0.018 ± 0.0042	-0.008 ± 0.011
4H:SRB	-0.004 ± 0.02	0.01 ± 0.021	0.0005 ± 0.026	-0.004 ± 0.0085	-0.011 ± 0.0099	0.0035 ± 0.0021	-0.006 ± 0.0071	-0.029	0.001 ± 0.0042	0.004 ± 0.0057	0.003 ± 0.0099	-0.0055 ± 0.00071	0.0025 ± 0.013	0.006 ± 0.0028	-0.0155 ± 0.0064	-0.0045 ± 0.0021	0.007 ± 0.0071	-0.005 ± 0.017	0.002 ± 0.021	0.021 ± 0.0057

Shown comma-delimited: entries from further up.
Test System,level (log10) [1],level (log10) [2],level (log10) ([3]; 740 nM),level (log10) ([3]; 2200 nM),level (log10) (Perfluorooctanamidine; 2200 nM),level (log10) (Perfluorooctanamidine; 6700 nM),level (log10) (Perfluorooctanamidine; 20000 nM),level (log10) (Perfluorooctanamidine; 60000 nM),level (log10) [4],level (log10) (Perfluorodecanoic acid; 2200 nM),level (log10) (Perfluorodecanoic acid; 6700 nM),level (log10) (Perfluorodecanoic acid; 20000 nM),level (log10) (Perfluorononanoic acid),level (log10) [5],level (log10) (Perfluorooctanoic acid),level (log10) [6],level (log10) [7],level (log10) [8],level (log10) [9],level (log10) [10]
MyoF:Collagen I,0.005 ± 0.033,-0.006 ± 0.028,0.003 ± 0.0014,-0.005,-0.005 ± 0.024,-0.0005 ± 0.013,0.007 ± 0.0085,0.047,-0.026 ± 0.031,0.0095 ± 0.00071,-0.0065 ± 0.059,-0.417 ± 0.071,-0.0425 ± 0.015,-0.0255 ± 0.0078,0.0035 ± 0.005,-0.011 ± 0.013,-0.0165 ± 0.023,-0.0055 ± 0.016,-0.0005 ± 0.026,0.0065 ± 0.018
HDF3CGF:PAI-I,0.0095 ± 0.066,-0.0005 ± 0.029,-0.0385 ± 0.054,-0.066 ± 0.05,-0.035 ± 0.011,-0.0225 ± 0.013,0.02 ± 0.014,-0.233,0.0545 ± 0.052,0.112 ± 0.073,0.15 ± 0.051,-0.107 ± 0.1,0.0195 ± 0.081,0.057 ± 0.054,0.0225 ± 0.019,0.0015 ± 0.057,-0.043 ± 0.042,0.026 ± 0.041,0.0005 ± 0.03,0.0085 ± 0.033
LPS:sTNF-alpha,0.082 ± 0.062,0.006 ± 0.017,0.0635 ± 0.029,0.0515 ± 0.013,0.0425 ± 0.00071,-0.0145 ± 0.071,-0.095 ± 0.17,-0.08,-0.023 ± 0.027,-0.0255 ± 0.029,-0.0245 ± 0.011,-0.02 ± 0.017,0.013 ± 0.048,-0.008 ± 0.0085,0.0205 ± 0.015,-0.0095 ± 0.049,-0.0155 ± 0.049,-0.0185 ± 0.049,-0.0725 ± 0.13,0.0055 ± 0.0035
